Laboratory results published in PMC11039996.
Results are given in words; binding and its absence hold for the method and conditions named. In cells and extracts the contact can be indirect. Some binding calls cover weakened binding; strength is not graded here.

Sequences of proteins named here, by UniProt entry; tags and fusion partners are left off.
UniProt P09874: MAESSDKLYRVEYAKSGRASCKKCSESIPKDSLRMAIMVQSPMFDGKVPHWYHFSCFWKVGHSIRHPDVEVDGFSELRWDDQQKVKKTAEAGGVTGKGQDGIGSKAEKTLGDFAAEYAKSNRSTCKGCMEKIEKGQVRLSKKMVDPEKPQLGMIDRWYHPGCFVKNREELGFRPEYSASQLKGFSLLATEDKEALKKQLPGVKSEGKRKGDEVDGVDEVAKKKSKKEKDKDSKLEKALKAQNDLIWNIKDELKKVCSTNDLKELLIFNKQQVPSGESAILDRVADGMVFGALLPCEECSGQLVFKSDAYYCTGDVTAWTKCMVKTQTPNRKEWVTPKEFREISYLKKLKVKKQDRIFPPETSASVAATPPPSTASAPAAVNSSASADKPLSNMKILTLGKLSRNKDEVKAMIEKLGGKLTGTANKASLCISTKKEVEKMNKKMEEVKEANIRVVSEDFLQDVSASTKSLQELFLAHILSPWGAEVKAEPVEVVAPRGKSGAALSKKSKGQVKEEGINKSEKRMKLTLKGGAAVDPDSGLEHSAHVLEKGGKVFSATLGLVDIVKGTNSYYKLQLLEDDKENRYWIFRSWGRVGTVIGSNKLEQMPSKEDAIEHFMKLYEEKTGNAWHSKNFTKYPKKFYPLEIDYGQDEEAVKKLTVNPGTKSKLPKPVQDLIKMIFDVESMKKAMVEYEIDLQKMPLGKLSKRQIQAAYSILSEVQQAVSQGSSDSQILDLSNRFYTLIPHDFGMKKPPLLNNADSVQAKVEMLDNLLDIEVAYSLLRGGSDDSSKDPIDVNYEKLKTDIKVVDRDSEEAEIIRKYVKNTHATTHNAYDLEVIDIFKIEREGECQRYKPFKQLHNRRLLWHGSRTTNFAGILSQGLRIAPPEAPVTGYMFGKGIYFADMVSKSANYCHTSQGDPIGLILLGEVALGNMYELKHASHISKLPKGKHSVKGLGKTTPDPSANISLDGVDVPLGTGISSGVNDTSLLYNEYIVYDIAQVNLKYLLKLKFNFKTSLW

Target: MBP-PARP1 fusion protein (UniProt P09874)
Test: pull-down; MBP-PARP1 fusion protein on beads (amylose resin), incubated with lysates of HEK293T cells expressing SFB-NUDT16 (WT or DDEEE5A); cells untreated, IR 20 Gy, or PARPi (20 μM olaparib, 3 h) before IR; only the target purified

- binding: binds
B1: SFB-NUDT16 DDEEE5A mutant (D63AD66AE118AE119AE124A) (protein, UniProt Q96DE0 1-195)
chain: MAGARRLELGEALALGSGWRHACHALLYAPDPGMLFGRIPLRYAILMQMRFDGRLGFPGGFVATQARSLEDGLNRELREELGEAAAAFRVERTDYRSSHVGSGPRVVAHFYAKRLTLAALLAVAAGATRAKDHGLEVLGLVRVPLYTLRDGVGGLPTFLENSFIGSAREQLLEALQDLGLLQSGSISGLKIPAHH
